These are yes or no findings as the source states them, for the method shown. For part of these data: In cells and extracts the contact can be indirect. Some entries that bind do so weakly or less than the wild type.
Experiments:
[1] = target: histidine (his)-tagged human TLR4 (human) (UniProt O00206); test: pull-down and peptide competition (summary of the examples)
[2] = target: histidine (his)-tagged human TLR4 (human) (UniProt O00206); test: pull-down on nickel-NTA agarose beads, anti-hRetn Western blot
[3] = target: mouse TLR4 on lung and peritoneal cells of Tlr4+/+ mice (mouse) (UniProt Q9QUK6); test: flow cytometry, hRetn cellular binding assay on lung cells of Nb-infected Tlr4+/+ or Tlr4-/- mice
[4] = target: mouse TLR4 on lung and peritoneal cells of Tlr4+/+ mice (mouse) (UniProt Q9QUK6); test: flow cytometry on day 7 Nb-infected Tlr4+/+ and Tlr4-/- lung cells

Protein sequences, listed by entry. Tags and fused reporters are not part of them. Lines headed by an entry give the natural chain unless they say otherwise; changes in a name come on top. Residues count along the entry.
UniProt O00206, residues 24-631: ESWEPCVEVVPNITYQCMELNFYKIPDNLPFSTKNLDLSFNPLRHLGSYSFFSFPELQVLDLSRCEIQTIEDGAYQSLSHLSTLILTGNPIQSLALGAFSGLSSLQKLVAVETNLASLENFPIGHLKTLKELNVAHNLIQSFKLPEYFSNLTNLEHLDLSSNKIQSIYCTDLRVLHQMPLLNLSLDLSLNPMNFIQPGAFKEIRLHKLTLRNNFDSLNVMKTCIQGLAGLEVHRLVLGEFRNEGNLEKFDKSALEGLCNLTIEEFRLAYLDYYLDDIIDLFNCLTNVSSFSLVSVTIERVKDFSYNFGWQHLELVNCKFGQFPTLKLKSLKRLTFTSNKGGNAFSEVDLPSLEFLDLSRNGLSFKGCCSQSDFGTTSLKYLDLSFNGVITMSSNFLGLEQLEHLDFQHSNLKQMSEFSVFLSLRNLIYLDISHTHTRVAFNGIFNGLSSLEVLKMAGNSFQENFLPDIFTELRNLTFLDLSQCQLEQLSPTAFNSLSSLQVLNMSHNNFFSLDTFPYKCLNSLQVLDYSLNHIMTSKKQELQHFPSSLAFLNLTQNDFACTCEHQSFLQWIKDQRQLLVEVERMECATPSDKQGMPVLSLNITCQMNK
UniProt Q9QUK6, residues 26-835: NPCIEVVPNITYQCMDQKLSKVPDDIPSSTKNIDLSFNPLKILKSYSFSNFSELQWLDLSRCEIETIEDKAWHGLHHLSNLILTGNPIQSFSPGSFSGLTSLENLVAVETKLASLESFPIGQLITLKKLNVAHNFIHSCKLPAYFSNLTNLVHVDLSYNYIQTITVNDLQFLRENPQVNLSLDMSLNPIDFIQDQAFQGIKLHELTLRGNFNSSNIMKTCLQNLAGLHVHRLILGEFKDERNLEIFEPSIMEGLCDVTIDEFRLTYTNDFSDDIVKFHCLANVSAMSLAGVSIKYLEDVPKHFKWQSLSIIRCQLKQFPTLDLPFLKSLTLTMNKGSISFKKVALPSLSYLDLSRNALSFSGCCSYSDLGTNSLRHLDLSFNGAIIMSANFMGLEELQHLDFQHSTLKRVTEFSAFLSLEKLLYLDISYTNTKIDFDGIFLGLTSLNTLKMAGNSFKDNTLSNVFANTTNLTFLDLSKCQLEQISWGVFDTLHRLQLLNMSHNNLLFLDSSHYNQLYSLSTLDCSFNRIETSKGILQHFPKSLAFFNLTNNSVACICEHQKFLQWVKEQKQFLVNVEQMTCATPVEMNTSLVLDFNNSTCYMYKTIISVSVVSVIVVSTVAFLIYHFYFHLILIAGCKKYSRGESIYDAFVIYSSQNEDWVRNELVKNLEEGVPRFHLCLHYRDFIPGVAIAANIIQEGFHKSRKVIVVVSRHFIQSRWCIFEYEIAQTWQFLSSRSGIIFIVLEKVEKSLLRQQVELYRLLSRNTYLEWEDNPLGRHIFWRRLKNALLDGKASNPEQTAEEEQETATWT
UniProt Q9HD89: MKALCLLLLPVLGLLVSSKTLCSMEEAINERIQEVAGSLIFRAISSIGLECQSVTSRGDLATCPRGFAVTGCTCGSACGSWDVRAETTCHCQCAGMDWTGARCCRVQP

Measured: binding

mammalian cell-derived human resistin (hRetn), 293T cell-derived (LifeSpan Biosciences) (from UniProt Q9HD89 19-108) (ligand)
binds: [1] | [2]

recombinant human resistin (hRetn), E. coli-derived (Peprotech) (from UniProt Q9HD89 17-108) (ligand)
binds: all assays above
